Results are given in words; binding and its absence hold for the method and conditions named. In cells and extracts the contact can be indirect. Binding calls can cover weak binding; strength is not graded here.
Molecular target: full-length factor VIII missense mutant p.A488T (human) (UniProt P00451)
Test: co-IP; lysates of transfected HEK293T cells (NP-40 lysis buffer: 50 mM Tris-Cl pH 7.5, 150 mM NaCl, 1% NP-40, 0.05% SDS); FVIII precipitated with agarose-bead-conjugated monoclonal anti-human FVIII, blots for BiP and CALR; cells untreated or treated with 2.5 µM SAHA or BIX (20 µM, 5 µM) for 24 h

The chains behind the UniProt entries cited, without tags or fusion partners. Where a name states a change or a piece, a line headed by the entry shows the natural chain unless it says otherwise. Residues count along the entry.
UniProt P00451: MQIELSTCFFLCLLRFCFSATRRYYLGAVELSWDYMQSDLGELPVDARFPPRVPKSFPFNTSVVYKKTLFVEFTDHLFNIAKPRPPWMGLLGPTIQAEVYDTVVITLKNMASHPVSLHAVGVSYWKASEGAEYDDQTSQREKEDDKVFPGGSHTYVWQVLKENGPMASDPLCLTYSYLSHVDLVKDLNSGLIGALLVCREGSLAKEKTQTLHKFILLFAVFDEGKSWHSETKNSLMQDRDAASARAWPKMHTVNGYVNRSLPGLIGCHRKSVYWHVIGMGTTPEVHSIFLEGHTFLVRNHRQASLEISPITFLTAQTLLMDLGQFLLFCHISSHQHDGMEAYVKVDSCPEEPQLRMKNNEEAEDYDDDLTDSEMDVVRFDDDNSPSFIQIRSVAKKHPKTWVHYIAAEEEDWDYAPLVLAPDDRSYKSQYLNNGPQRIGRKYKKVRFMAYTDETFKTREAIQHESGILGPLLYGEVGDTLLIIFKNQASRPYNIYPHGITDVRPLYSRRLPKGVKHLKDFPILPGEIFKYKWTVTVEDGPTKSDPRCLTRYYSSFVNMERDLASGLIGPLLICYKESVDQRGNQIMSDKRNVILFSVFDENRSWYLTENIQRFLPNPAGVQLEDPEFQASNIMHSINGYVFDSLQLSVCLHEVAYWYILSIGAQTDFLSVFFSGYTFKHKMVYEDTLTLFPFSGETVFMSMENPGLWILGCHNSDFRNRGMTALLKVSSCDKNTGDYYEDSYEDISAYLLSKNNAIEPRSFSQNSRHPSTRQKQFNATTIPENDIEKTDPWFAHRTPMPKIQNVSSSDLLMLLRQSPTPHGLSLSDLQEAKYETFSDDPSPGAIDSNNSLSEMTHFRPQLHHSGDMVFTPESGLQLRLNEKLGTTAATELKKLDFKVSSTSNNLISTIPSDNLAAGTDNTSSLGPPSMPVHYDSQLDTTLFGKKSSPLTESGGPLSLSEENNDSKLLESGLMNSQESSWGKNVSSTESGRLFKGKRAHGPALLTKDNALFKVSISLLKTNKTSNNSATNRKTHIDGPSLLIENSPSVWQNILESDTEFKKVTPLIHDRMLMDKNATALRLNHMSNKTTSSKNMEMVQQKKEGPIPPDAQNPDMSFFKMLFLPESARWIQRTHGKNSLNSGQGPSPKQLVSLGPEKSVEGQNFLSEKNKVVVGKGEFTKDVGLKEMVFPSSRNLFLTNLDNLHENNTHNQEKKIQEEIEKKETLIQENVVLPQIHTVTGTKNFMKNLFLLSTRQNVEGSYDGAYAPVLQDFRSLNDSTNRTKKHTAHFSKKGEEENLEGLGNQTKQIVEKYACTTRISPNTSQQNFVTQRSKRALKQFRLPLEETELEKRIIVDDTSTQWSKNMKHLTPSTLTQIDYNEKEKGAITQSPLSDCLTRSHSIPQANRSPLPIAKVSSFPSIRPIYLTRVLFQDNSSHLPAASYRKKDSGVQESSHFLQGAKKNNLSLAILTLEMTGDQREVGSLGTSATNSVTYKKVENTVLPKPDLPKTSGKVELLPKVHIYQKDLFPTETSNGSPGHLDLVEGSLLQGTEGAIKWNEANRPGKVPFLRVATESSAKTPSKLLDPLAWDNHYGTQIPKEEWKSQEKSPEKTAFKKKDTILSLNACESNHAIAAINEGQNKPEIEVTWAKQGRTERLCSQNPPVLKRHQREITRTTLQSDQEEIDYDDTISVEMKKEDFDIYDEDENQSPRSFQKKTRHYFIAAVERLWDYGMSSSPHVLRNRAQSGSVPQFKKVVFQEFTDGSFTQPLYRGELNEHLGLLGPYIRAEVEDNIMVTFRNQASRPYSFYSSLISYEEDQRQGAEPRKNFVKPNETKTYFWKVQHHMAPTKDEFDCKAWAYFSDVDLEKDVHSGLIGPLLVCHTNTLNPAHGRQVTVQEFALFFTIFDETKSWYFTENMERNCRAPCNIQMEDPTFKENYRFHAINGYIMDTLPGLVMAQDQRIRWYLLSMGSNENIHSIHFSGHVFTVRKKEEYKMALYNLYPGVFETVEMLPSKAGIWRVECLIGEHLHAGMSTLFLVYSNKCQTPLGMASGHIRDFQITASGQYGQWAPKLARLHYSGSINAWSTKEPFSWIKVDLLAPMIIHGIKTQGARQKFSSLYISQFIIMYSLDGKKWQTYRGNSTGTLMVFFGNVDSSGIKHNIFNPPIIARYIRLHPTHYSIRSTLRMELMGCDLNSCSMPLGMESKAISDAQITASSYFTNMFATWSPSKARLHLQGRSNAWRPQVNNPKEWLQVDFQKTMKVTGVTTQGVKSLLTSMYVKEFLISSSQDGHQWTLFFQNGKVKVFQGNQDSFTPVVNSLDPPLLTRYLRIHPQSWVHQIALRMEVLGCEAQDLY
UniProt P11021, residues 19-654: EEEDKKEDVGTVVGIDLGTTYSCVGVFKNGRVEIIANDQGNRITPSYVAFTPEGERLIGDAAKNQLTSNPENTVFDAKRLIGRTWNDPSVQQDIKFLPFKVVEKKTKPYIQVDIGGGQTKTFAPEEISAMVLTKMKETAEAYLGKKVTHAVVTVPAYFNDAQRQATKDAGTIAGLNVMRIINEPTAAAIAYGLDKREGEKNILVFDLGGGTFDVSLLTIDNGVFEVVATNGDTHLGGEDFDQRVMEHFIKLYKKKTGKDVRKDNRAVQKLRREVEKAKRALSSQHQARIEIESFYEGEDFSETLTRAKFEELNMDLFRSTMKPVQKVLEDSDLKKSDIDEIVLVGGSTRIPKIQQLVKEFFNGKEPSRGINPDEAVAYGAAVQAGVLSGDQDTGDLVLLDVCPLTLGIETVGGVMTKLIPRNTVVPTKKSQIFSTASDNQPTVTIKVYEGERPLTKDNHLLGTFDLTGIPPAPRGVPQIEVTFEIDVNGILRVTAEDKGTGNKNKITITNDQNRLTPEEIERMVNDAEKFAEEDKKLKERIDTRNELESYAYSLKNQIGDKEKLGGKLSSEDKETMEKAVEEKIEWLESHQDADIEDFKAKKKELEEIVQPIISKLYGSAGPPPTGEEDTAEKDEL

Substance	binding
calreticulin (from UniProt P27797 18-417)	binds
immunoglobulin binding protein (BiP/GRP78) (from UniProt P11021 19-654)	binds
